In the supplement of paper PMC10849652:
The other results are listed elsewhere or left out.

Protein sequences, listed by entry. Tags and fused reporters are not part of them. Lines headed by an entry give the natural chain unless they say otherwise; changes in a name come on top.
UniProt Q96KA5: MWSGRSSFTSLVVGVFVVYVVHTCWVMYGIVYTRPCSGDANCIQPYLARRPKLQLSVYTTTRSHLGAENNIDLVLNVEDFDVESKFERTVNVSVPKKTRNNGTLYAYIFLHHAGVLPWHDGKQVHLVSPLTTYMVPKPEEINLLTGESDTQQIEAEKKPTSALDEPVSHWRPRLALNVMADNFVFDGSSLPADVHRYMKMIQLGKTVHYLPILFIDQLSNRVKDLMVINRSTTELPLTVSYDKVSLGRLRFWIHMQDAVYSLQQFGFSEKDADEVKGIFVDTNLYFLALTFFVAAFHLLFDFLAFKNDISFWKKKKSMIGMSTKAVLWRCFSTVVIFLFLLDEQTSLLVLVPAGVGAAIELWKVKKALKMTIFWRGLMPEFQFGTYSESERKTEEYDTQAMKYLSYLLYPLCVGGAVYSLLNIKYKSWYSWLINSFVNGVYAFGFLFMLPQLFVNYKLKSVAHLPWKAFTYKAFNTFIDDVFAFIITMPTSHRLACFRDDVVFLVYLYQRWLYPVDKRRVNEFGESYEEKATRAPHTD
UniProt Q14008: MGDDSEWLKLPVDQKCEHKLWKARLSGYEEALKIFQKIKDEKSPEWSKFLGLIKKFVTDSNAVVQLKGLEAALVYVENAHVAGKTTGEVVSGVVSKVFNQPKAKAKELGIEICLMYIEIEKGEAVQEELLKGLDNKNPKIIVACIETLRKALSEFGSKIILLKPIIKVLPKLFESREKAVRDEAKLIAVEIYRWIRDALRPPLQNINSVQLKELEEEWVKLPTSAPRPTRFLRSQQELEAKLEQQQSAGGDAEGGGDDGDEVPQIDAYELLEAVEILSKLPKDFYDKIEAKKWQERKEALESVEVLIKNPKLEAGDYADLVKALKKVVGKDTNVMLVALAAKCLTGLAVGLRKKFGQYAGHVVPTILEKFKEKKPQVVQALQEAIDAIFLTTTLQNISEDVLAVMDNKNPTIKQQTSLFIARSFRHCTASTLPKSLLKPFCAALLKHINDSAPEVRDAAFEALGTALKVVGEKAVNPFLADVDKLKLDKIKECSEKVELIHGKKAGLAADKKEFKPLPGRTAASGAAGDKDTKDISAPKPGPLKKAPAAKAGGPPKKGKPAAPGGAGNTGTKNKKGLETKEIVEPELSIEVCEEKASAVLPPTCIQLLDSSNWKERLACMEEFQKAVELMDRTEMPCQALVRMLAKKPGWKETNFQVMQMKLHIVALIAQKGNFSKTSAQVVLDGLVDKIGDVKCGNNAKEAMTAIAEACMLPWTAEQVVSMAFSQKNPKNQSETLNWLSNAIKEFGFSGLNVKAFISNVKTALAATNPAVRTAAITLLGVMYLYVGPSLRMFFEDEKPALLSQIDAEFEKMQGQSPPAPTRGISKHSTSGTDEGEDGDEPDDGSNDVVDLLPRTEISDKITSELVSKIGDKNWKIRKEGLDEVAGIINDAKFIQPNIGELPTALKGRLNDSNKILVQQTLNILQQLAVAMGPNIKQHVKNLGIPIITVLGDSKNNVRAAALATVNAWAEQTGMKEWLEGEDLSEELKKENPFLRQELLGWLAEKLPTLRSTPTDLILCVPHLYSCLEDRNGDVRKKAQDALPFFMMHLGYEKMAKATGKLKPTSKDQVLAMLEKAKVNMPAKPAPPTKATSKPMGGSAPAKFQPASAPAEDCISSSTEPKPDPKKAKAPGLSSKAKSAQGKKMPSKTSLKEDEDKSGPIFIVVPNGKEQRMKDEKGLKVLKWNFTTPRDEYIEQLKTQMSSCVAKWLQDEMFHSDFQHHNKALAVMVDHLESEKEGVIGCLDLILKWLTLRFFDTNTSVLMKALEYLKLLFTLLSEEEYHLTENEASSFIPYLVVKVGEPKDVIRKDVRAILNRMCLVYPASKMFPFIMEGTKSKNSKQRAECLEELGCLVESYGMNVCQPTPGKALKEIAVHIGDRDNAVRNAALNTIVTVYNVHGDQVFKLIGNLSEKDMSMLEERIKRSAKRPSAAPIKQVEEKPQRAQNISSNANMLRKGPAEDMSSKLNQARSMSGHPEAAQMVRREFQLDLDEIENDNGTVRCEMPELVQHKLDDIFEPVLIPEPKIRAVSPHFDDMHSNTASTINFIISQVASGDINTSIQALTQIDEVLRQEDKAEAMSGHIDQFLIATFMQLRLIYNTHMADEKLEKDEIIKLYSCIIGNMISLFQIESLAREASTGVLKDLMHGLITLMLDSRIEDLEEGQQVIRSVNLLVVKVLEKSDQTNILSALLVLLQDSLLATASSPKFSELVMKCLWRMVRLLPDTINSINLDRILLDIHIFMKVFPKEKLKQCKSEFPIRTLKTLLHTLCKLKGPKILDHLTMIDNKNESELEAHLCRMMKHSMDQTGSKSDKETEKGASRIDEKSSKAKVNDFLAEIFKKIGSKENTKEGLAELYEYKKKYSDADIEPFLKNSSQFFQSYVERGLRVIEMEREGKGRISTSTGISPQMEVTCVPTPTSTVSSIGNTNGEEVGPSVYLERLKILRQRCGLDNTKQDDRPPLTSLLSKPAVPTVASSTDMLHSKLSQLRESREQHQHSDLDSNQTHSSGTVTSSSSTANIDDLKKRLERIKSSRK
UniProt Q9Y2R0: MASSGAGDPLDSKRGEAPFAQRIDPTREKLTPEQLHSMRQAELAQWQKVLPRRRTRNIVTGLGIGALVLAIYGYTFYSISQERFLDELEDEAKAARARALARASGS
UniProt Q5JTJ3: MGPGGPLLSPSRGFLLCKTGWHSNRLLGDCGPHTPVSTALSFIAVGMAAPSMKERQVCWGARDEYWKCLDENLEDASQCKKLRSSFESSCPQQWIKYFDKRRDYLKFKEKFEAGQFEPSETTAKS
UniProt Q6P4Q7: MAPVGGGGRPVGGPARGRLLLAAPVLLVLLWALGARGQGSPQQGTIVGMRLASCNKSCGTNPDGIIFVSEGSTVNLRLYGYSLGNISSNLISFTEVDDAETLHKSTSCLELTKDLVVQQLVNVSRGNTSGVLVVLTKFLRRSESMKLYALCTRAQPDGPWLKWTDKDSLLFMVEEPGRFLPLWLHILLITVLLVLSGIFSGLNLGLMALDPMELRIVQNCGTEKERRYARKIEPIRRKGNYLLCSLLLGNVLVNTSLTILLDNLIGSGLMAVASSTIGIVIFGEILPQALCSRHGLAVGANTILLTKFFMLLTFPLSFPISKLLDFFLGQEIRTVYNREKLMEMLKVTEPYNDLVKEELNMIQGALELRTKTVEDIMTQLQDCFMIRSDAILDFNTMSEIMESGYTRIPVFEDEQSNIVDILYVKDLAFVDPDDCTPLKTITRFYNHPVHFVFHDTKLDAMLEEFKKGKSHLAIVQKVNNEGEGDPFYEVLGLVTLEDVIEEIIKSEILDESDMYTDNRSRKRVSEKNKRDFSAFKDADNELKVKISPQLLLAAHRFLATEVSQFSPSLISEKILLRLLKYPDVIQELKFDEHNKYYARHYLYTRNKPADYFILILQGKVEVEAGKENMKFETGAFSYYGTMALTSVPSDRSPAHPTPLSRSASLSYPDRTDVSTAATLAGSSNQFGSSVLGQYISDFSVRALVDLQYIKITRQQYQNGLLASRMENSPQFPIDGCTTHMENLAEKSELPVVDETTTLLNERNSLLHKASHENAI
UniProt Q9H078: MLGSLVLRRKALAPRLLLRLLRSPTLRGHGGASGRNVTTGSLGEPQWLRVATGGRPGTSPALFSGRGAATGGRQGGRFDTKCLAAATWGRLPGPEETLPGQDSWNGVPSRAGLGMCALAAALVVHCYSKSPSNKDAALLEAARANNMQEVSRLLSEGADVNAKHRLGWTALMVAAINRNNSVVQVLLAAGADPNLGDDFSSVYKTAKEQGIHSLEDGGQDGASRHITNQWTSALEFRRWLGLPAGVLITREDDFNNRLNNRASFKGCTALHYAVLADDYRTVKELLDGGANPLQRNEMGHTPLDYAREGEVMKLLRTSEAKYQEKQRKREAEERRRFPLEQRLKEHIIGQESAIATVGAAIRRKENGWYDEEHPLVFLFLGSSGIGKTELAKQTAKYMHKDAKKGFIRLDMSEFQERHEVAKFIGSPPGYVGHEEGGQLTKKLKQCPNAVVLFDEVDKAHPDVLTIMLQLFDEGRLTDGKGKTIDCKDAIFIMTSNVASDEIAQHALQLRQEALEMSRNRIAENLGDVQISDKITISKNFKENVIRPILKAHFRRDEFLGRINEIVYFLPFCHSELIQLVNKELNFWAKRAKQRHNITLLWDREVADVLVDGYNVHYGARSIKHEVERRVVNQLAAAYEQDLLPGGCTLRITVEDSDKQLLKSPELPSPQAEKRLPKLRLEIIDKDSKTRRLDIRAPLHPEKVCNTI
UniProt Q8WUH1: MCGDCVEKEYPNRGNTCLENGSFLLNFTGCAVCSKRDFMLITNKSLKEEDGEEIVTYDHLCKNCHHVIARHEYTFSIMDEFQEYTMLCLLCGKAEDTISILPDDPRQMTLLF
UniProt G5E9Z2: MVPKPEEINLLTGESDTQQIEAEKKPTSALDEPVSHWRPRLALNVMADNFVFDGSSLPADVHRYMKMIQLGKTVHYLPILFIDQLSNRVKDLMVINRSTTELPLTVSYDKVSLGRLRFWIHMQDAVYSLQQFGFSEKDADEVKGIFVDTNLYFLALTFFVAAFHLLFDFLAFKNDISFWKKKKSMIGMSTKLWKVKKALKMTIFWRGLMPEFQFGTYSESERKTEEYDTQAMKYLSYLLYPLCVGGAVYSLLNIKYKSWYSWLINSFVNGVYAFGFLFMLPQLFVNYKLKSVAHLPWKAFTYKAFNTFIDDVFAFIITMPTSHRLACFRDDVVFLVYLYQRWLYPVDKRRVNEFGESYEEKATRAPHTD
UniProt Q14677: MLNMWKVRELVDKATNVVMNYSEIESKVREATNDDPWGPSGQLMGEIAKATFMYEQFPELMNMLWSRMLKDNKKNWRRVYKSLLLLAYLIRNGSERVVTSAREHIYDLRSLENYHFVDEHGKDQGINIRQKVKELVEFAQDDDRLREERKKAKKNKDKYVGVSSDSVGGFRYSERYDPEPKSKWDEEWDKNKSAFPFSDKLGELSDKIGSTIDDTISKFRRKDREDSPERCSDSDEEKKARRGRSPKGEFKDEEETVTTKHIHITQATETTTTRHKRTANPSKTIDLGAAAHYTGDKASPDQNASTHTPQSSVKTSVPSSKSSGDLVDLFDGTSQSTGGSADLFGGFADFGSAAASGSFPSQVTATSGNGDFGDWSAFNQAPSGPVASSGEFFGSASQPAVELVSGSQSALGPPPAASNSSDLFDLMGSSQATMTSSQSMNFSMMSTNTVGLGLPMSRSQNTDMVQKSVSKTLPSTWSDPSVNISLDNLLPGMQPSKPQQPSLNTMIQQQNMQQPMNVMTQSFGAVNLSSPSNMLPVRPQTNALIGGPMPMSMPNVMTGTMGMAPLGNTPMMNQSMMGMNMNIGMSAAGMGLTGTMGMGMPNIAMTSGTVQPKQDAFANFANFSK
UniProt Q6PJW8: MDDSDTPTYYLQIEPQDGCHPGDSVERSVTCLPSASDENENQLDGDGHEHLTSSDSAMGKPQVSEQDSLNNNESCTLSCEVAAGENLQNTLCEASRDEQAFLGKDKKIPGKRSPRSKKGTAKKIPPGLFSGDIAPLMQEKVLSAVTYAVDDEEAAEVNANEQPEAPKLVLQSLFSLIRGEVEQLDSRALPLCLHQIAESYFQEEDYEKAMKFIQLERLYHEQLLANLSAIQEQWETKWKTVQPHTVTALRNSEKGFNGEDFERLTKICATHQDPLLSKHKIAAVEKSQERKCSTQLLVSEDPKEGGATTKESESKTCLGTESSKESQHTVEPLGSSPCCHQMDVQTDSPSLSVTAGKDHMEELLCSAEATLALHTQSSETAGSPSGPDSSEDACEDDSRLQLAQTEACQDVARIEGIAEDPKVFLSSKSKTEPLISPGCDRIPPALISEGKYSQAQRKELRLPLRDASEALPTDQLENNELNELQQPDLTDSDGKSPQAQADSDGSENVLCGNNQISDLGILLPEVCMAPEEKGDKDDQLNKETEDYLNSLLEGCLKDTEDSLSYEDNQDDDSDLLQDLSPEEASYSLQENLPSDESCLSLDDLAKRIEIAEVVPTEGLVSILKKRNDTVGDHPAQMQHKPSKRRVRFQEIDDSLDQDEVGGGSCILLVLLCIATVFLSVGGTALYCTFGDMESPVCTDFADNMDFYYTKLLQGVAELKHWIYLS
UniProt Q13286: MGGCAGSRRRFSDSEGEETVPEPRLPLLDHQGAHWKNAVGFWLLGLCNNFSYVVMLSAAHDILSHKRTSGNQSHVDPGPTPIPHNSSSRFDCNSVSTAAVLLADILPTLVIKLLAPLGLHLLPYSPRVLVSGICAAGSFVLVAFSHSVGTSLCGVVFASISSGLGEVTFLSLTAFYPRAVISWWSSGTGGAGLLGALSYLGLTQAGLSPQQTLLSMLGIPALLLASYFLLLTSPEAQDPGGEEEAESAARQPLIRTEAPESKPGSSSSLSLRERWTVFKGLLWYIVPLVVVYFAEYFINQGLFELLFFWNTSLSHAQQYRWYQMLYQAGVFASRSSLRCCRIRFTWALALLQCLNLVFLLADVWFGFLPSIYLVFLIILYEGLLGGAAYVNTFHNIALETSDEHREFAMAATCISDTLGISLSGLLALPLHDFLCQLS

Columns and labels:
Experiment in all cases: log2 fold change, soluble protein after heating vs DMSO (PISA); higher = thermal stabilisation; K562 cells, 10 uM, 30 min; active = over 0.2 and 3.5 SD of the protein, either way, in both replicates (recomputed)
[1] = compound: C1=CC=C(C=C1)[C@H](COC2=CC3=C(C=C2)NC(=O)N3)NC(=O)C4=CC=CN(C4=O)CC5=CC(=C(C=C5)F)F
Method in brief: (§1)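 For each measurement, 10 μM compound was applied for 30 min to K562 cells at 2×10^6 cells/mL. Aliquots were heated for 3 min across 48°C-58°C, pooled, and extracted in PBS with 0.5% NP-40 at 4°C; the supernatant after 21,000xg for 90 min was soluble protein. This was quantified by TMTpro 16plex LC-MS/MS with channel sums equalised, and thermal stability was reported relative to control samples from duplicates, on a log2 fold-change scale.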

[2] = compound: CC1=C(SC2=C1C(=N[C@H](C3=NN=C(N32)C)CC(=O)N)C4=CC=C(C=C4)Cl)C
Method in brief: as §1

[3] = compound: CC1=C2C(=CC=C1)N=C(N(C2=O)C3=CC=CC=C3C)CN4C=NC5=C(N=CN=C54)N
Method in brief: as §1

[4] = compound: Cc1sc2c(c1C)C(c1ccc(Cl)cc1)=N[C@@H](CC(=O)OC(C)(C)C)c1nnc(C)n1-2
Method in brief: as §1

[5] = compound: c1ccc([C@@H]2C[C@H]2NC2CCNCC2)cc1
Method in brief: as §1

Measured: log2 fold change

CLN8 (UniProt Q9UBY8)
inactive: [1] 0.121 | [2] 0.042 | [3] -0.067 | [4] 0.043 | [5] -0.057

CLPTM1L (UniProt Q96KA5)
inactive: [1] -0.011 | [2] 0.013 | [3] 0.024 | [4] -0.145 | [5] 0.01

CKAP5 (UniProt Q14008)
inactive: [1] -0.061 | [2] -0.012 | [3] 0.032 | [4] 0.035 | [5] -0.018

COA3 (UniProt Q9Y2R0)
inactive: [1] -0.032 | [2] 0.005 | [3] -0.032 | [4] -0.043 | [5] 0.01

CMSS1 (UniProt Q9BQ75)
inactive: [1] 0.04 | [2] 0.106 | [3] 0.084 | [4] 0.186 | [5] -0.086

COA6 isoform 2 (UniProt Q5JTJ3)
inactive: [1] 0.06 | [2] 0.08 | [3] 0.038 | [4] -0.06 | [5] -0.015

CMTM3 (UniProt Q96MX0)
inactive: [1] -0.179 | [2] -0.001 | [3] -0.056 | [4] 0.044 | [5] 0.081

CLIP1 isoform 1 (UniProt P30622)
inactive: [1] 0.011 | [2] 0.01 | [3] 0.004 | [4] -0.012 | [5] 0.024

CNOT4 isoform 6 (UniProt O95628)
inactive: [1] -0.019 | [2] 0.012 | [3] 0.068 | [4] -0.01 | [5] 0.018

CLIC1 (UniProt O00299)
inactive: [1] -0.008 | [2] 0.028 | [3] 0.026 | [4] 0.014 | [5] -0.017

CNNM4 (UniProt Q6P4Q7)
inactive: [1] -0.047 | [2] 0.056 | [3] 0.015 | [4] -0.132 | [5] 0.001

CLPB isoform 2 (UniProt Q9H078)
inactive: [1] -0.018 | [2] 0.04 | [3] -0.01 | [4] -0.025 | [5] -0.022

Two consecutive entries from above, quoted:
CLIC1 (UniProt O00299)
inactive: [1] -0.008 | [2] 0.028 | [3] 0.026 | [4] 0.014 | [5] -0.017

CNNM4 (UniProt Q6P4Q7)
inactive: [1] -0.047 | [2] 0.056 | [3] 0.015 | [4] -0.132 | [5] 0.001

Next part

CMC2 (UniProt Q9NRP2)
inactive: [1] -0.001 | [2] -0.035 | [3] -0.046 | [4] -0.035 | [5] 0.083

CHURC1 isoform 2 (UniProt Q8WUH1)
inactive: [1] -0.037 | [2] -0.006 | [3] 0.11 | [4] -0.089 | [5] 0.016

CHORDC1 (UniProt Q9UHD1)
inactive: [1] -0.034 | [2] 0.063 | [3] 0.016 | [4] -0.045 | [5] -0.067

CLPTM1L (UniProt G5E9Z2)
inactive: [1] -0.22 | [2] 0.148 | [3] -0.012 | [4] -0.07 | [5] -0.1

CNOT3 (UniProt O75175)
inactive: [1] -0.017 | [2] 0.012 | [3] 0.031 | [4] -0.027 | [5] 0.011

COCH (UniProt O43405)
inactive: [1] 0.006 | [2] 0.061 | [3] -0.193 | [4] 0.144 | [5] 0.006

CLINT1 (UniProt Q14677)
inactive: [1] 0.063 | [2] 0.131 | [3] -0.005 | [4] -0.009 | [5] 0.157

COL15A1 (UniProt P39059)
inactive: [1] -0.031 | [2] -0.008 | [3] -0.126 | [4] 0.059 | [5] 0.104

CHMP6 (UniProt Q96FZ7)
inactive: [1] -0.012 | [2] -0.031 | [3] 0.024 | [4] -0.015 | [5] -0.06

CNST (UniProt Q6PJW8)
inactive: [1] -0.026 | [2] 0.011 | [3] 0.094 | [4] 0.021 | [5] -0.02

CLN3 (UniProt Q13286)
inactive: [1] 0.005 | [2] -0.032 | [3] -0.315 | [4] -0.119 | [5] 0.087

COL18A1 (UniProt P39060)
inactive: [1] -0.051 | [2] 0.106 | [3] -0.123 | [4] -0.045 | [5] -0.219
